Data from publication PMC13459536.
These are yes or no findings as the source states them, for the method shown. In cells and extracts the contact can be indirect. Some entries that bind do so weakly or less than the wild type. Sequences can lack the tags named with a protein.

Molecular target: T1, Atp6-HA-6xHis (ATP synthase subunit a) (S. cerevisiae) (UniProt P00854)
T1 sequence: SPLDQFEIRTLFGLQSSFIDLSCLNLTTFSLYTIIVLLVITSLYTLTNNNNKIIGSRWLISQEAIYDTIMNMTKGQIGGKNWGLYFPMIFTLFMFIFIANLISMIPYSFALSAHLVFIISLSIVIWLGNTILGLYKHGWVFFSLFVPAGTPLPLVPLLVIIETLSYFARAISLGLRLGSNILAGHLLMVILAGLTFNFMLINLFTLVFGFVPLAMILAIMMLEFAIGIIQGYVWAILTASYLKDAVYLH
Test: pull-down; ATP synthase complexes purified through Atp6-HA-6xHis on Ni-NTA agarose beads from 5 mg of mitochondria of the wild-type strain; 2 ug of eluate on 15% SDS-PAGE, Western blot with antibodies against the subunits

binding: binds
B1: Atp3 (ATP synthase subunit γ) (protein, UniProt P38077 34-311)
chain: ATLKEVEMRLKSIKNIEKITKTMKIVASTRLSKAEKAKISAKKMDEAEQLFYKNAETKNLDVEATETGAPKELIVAITSDKGLCGSIHSQLAKAVRRHLNDQPNADIVTIGDKIKMQLLRTHPNNIKLSINGIGKDAPTFQESALIADKLLSVMKAGTYPKISIFYNDPVSSLSFEPSEKPIFNAKTIEQSPSFGKFEIDTDANVPRDLFEYTLANQMLTAMAQGYAAEISARRNAMDNASKNAGDMINRYSILYNRTRQAVITNELVDIITGASSLG
